In the assay the target is AGO1 fused with C-terminal Flag- and HA-epitope tags (e-AGO1) (human) (UniProt Q9UL18). The assay can be described thus: affinity purification with mass spectrometry.

These are yes or no findings as the source states them, for the method shown. In cells and extracts the contact can be indirect. A yes stands for co-enrichment or nearness to the bait. Other partners may have been found.

B1: RBM14 (protein, UniProt Q96PK6 1-669)
chain: MKIFVGNVDGADTTPEELAALFAPYGTVMSCAVMKQFAFVHMRENAGALRAIEALHGHELRPGRALVVEMSRPRPLNTWKIFVGNVSAACTSQELRSLFERRGRVIECDVVKDYAFVHMEKEADAKAAIAQLNGKEVKGKRINVELSTKGQKKGPGLAVQSGDKTKKPGAGDTAFPGTGGFSATFDYQQAFGNSTGGFDGQARQPTPPFFGRDRSPLRRSPPRASYVAPLTAQPATYRAQPSVSLGAAYRAQPSASLGVGYRTQPMTAQAASYRAQPSVSLGAPYRGQLASPSSQSAAASSLGPYGGAQPSASALSSYGGQAAAASSLNSYGAQGSSLASYGNQPSSYGAQAASSYGVRAAASSYNTQGAASSLGSYGAQAASYGAQSAASSLAYGAQAASYNAQPSASYNAQSAPYAAQQAASYSSQPAAYVAQPATAAAYASQPAAYAAQATTPMAGSYGAQPVVQTQLNSYGAQASMGLSGSYGAQSAAAATGSYGAAAAYGAQPSATLAAPYRTQSSASLAASYAAQQHPQAAASYRGQPGNAYDGAGQPSAAYLSMSQGAVANANSTPPPYERTRLSPPRASYDDPYKKAVAMSKRYGSDRRLAELSDYRRLSESQLSFRRSPTKSSLDYRRLPDAHSDYARYSGSYNDYLRAAQMHSGYQRRM
On to B1, for which the binding entry was “binds”.

Source of the values: article doi:10.1101/2025.01.26.634929.
